In all, about 350,000 compounds went through this assay and about 220 (0.063%) were called active. Inconclusive means that the source gave no clear call. Such entries were picked first, then a sample of the others. The call rests on the fitted dose curve; in most records, active means well fitted activation curve with a large enough effect; inconclusive means small, poorly fitted or top-dose-only effect; inactive means no such curve, though single readings can be large or run the other way. Potencies beside an inconclusive call are fits to weak or partial responses and may not hold up.
Test: qHTS for Activators of Integrin-Mediated Alleviation for Muscular Dystrophy; further: nearly all actives have a fitted effect of over 60% in size;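 on activation: 100% = response of the positive control SU9516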
Conditions: alpha7betagal myoblasts, beta-gal FDG fluorescence, 48 h; activation: at 38.3 µM (top of the series)
Procedure, shortened: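 Alpha7betagal+/- myoblasts (passage 13) were plated 16-24 hr, then exposed to compounds (1:260 dilution of DMSO stock) for 48 hours at 37C. After MPER lysis, β-galactosidase reporter activity was read as FDG fluorescence (ex 480/em 540) after 30 minutes.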
Potency means the concentration at half of the fitted maximal effect.

SMILES | Potency | activation
COc1cccc(/C=N/Nc2cc(Cl)nc(C)n2)c1O | inactive | –
CC(=O)N(C)c1ccc(N=Nc2c(C)[nH]n(C(N)=S)c2=O)cc1 | inconclusive: 1.26 µM [activator, single point] | –
COc1cc(COCC(O)CN2CCCCC2C)cc(OC)c1OC (stereo unspecified) | inactive | –
COc1ccc(NC(=O)c2ccc(NC(=O)CCS(=O)(=O)c3cccs3)cc2)cc1 | inactive | –
N#Cc1nc(COc2cccc(Cl)c2)oc1NCc1ccncc1 | inconclusive: 11.2 µM [activator, single point] | –
O=C1/C(=N\S(=O)(=O)c2cccs2)C([n+]2ccccc2)=C([O-])c2ccccc21 | inactive | –
Cc1ccccc1/C=N/Nc1ncnc2nc[nH]c12 | – | inconclusive: 12% [activator]
Cc1n[nH]c(=O)c2ccccc12 | inconclusive: 2.82 µM [activator, single point] | –
COc1cccc(NC(=O)CN(C)C(=O)c2cc3c(s2)CCCCC3)c1 | inconclusive: 5.01 µM [activator, single point] | –
Nc1ccc(C(=O)NCCCSc2ccccc2)cc1[N+](=O)[O-] | inactive | –
O=C(O)C(c1ccccc1)N1C(=O)c2ccccc2C1=O (stereo unspecified) | inconclusive: 0.316 µM [activator, full curve, poor fit] | –
O=C(/C=C/c1ccco1)Nc1cccnc1Cl | inactive | –
COCCCNC(=S)NNC(=O)c1ccccc1Br | inconclusive: 28.2 µM [activator, single point] | –
O=C(Oc1ccc(=O)n(-c2ccccc2)n1)c1ccc(F)cc1 | inconclusive: 28.2 µM [activator, single point] | –
c1ccc(-c2nn(-c3ccccc3)[n+](-c3ccccc3)n2)cc1 | – | inconclusive: -46.6% [activator]
Cc1nn(-c2ccc(F)cc2F)c2c1-c1nc(N3CCCC3)ncc1CC2 | inactive | –
C=CCSc1nc2nc(C)cc(C)n2n1 | inconclusive: 2.82 µM [activator, partial curve, poor fit] | –
COc1ccc(/C=N/NC(=O)c2cc(-c3ccccc3)nc3ccccc23)c(C(=O)O)c1OC | inconclusive: 2.82 µM [activator, single point] | –
O=C(O)COc1ccc(/C=N/NC(=O)c2cn(-c3ccccc3)nc2-c2ccccc2)cc1 | inconclusive: 31.6 µM [activator, single point] | –
CC(C)(O)CNC(=O)C(Cc1ccccc1)N1C(=O)c2ccccc2C1=O (stereo unspecified) | inconclusive: 28.2 µM [activator, single point] | –
Cc1csc(SCC(=O)Nc2ccccc2C)n1 | inconclusive: 14.1 µM [activator, partial curve, poor fit] | –
O=C1NCCc2c1[nH]c1ccc([N+](=O)[O-])cc21 | inconclusive: 2 µM [activator, full curve] | –
CCS(=O)(=O)N1CCN=C1SCc1ccccc1 | inconclusive: 2.82 µM [activator, full curve, poor fit] | –
COc1ccc(NS(=O)(=O)c2cccc(C(=O)N/N=C(\C)c3ccc(-n4ccnc4)cc3)c2)cc1 | inactive | –

SMILES | Potency | activation
Cc1ccc2nc3c(cc(C(=O)NCc4ccco4)c(=N)n3Cc3ccco3)c(=O)n2c1 | inconclusive: 10 µM [activator, partial curve, poor fit] | –
COC(=O)c1c(C)oc(C)c1S(=O)(=O)NCc1ccc(Cl)cc1 | inconclusive: 3.16 µM [activator, partial curve, poor fit] | –
CCCCCCCCNC(=O)/C(C#N)=C/c1ccccc1[N+](=O)[O-] | inactive | –
CC(=O)NC(CC(=O)NCC(=O)Nc1ccc(F)c(F)c1)c1ccccc1 (stereo unspecified) | inconclusive: 3.16 µM [activator, single point] | –
CCCOC(=O)c1ccc(NC(=O)C(=O)NCC2CCCO2)cc1 (stereo unspecified) | inconclusive: 3.16 µM [activator, single point] | –
CC(=O)Nc1ccc(NC(=O)CSc2ccc(-c3ccco3)nn2)cc1 | inactive | –
Cc1cc(S(=O)(=O)N2CCCC2)ccc1OCC(=O)Nc1ccccc1 | inconclusive: 3.16 µM [activator, full curve, poor fit] | –
CN1CCN(C(=O)CC23CC4CC(CC(C4)C2)C3)CC1 | inconclusive: 11.2 µM [activator, single point] | –
COc1ccc(NC(=O)CCCn2cnc3ccccc3c2=O)cc1 | inconclusive: 3.55 µM [activator, single point] | –
Cc1c(C(=O)NCc2ccccc2CN2CCCC2)oc2c(F)cccc12 | inconclusive: 5.01 µM [activator, single point] | –
CCOC(=O)c1ccc(Nc2nnc(C)c3ccccc23)cc1 | inconclusive: 28.2 µM [activator, single point] | –
CCOCCCNC(=O)N1CCOCC1 | inconclusive: 3.55 µM [activator, single point] | –
S=C(NC12CC3CC(CC(C3)C1)C2)N1CCOCC1 | inconclusive: 10 µM [activator, partial curve, poor fit] | –
O=C(c1ccccc1Cl)N1CCN(Cc2ccc3c(c2)OCO3)CC1 | inconclusive: 3.55 µM [activator, partial curve, poor fit] | –
CCOC(=O)c1ccc[n+](CC(=O)Nc2cc(C(F)(F)F)ccc2Cl)c1 | inactive | –
COc1ccc(N=Cc2cccc(C)c2O)cc1Cl | inconclusive: 5.01 µM [activator, single point] | –
Nc1nonc1-n1nnc(C(=O)N/N=C/c2ccccn2)c1-c1ccccc1 | inconclusive: 3.16 µM [activator, single point] | –
O=C1CC(SC2=NCCS2)C(=O)N1c1ccc(Br)cc1 (stereo unspecified) | inactive | –
CC(C(=O)Nc1ccc(C#N)cc1)N(C)Cc1cccs1 (stereo unspecified) | inconclusive: 14.1 µM [activator, single point] | –
COCCOC(=O)C1=C(C)N(c2ccccc2)C(=O)NC1c1cccc([N+](=O)[O-])c1 (stereo unspecified) | inactive | –
Cc1onc(-c2ccccc2Cl)c1C(=O)Nc1ccc(-n2nncc2-c2ccco2)cc1 | inconclusive: 7.94 µM [activator, partial curve, poor fit] | –
O=C1Nc2ccccc2C(=O)N2CCCCC12 (stereo unspecified) | inactive | –
O=[N+]([O-])c1ccc(-c2cn3ccccc3n2)cc1 | inconclusive: 2.51 µM [activator, partial curve, poor fit] | –
CN1CCN(C(=O)c2cn(C)c3ccc(S(=O)(=O)N(C)C4CCCCC4)cc3c2=O)CC1 | inconclusive: 2.82 µM [activator, single point] | –

SMILES | Potency | activation
COc1ccc(OC)c(-c2csc(N(C)C(=O)c3ccco3)n2)c1 | inconclusive: 28.2 µM [activator, single point] | –
CC(=O)Nc1ccc(N(C(=O)CNC(=O)c2cccs2)C(C(=O)NCC2CCCO2)c2ccccc2)cc1 (stereo unspecified) | inconclusive: 17.8 µM [activator, single point] | –
Cc1nn(-c2ccccc2)c2c1cc1c(=O)n(C)c(=O)nc-1n2-c1ccccc1F | inactive | –
O=C(Nc1cccc(-c2nnn(CC(=O)N3CCc4ccccc4C3)n2)c1)C1CCC1 | inactive | –
Cc1c(-c2ccccc2)oc2c(C(=O)N3CCN(c4ccc([N+](=O)[O-])cc4)CC3)cccc2c1=O | inconclusive: 10 µM [activator, partial curve, poor fit] | –
NC1=NC(=O)C(Cc2ccc(OC(F)(F)F)cc2)S1 (stereo unspecified) | inconclusive: 5.62 µM [activator, partial curve, poor fit] | –
Cc1ccc(S(=O)(=O)CC(=O)c2ccc([N+](=O)[O-])cc2)cc1 | inactive | –
CCOc1cc(NC(=S)Nc2cccc(OC)c2)c(OCC)cc1NC(=O)c1ccc(C)cc1 | inactive | –
COc1ccc(NC(=O)c2sc3nc(N4CCOCC4)c4c(c3c2N)CC(C)(C)OC4)cc1 | inactive | –
CCOC(=O)C(=O)/C(=C\N(C)C)c1onc(-c2c(Cl)cccc2Cl)c1C(=O)OC | inconclusive: 3.55 µM [activator, partial curve] | –
COc1cc(N/N=C/c2ccccc2O)ncn1 | inactive | –
O=C(COc1c(Br)cc(Br)c2cccnc12)N1CCCCC1 | inconclusive: 5.01 µM [activator, single point] | –
COc1cc(C(=O)N/N=C/c2sccc2C)cc(OC)c1OC | inactive | –
CCc1c(C)nc2ncnn2c1N1CCCC(C(=O)Nc2cc(F)ccc2C)C1 (stereo unspecified) | inconclusive: 2.51 µM [activator, single point] | –
CCc1nnc(NC(=O)CSc2nnc(-c3ccccc3O)n2-c2ccc(C)cc2C)s1 | inactive | –
O=C(CCCn1c(=S)[nH]c2ccsc2c1=O)Nc1ccc2c(c1)OCCO2 | inactive | –
COc1ccc(C(=O)NNC(=O)c2cccc(S(=O)(=O)N3CCOCC3)c2)cc1 | inactive | –
COc1ccc(CN(C)C(=O)Cc2c[nH]c3ccccc23)cc1 | inconclusive: 5.01 µM [activator, single point] | –
CCc1ccc(/C=C2/SC(=S)N(CCC(=O)NCCCN3CCOCC3)C2=O)cc1 | inconclusive: 5.01 µM [activator, single point] | –
Cc1ccc2nc(C(=O)N3CCCC(Nc4ccc(F)cc4)C3)cn2c1 (stereo unspecified) | inconclusive: 12.6 µM [activator, single point] | –
[O-]/C(=C(\C(=S)Nc1ccc(Cl)cc1)[n+]1ccccc1)c1ccc(OC(F)F)cc1 | inconclusive: 10 µM [activator, single point] | –
COc1ccc(OC)c(/C=C/c2[nH]c(=O)[nH]c(=O)c2[N+](=O)[O-])c1 | inactive | –
COC(=O)c1sccc1NC(=O)Cn1nnc(-c2ccccc2C)n1 | inconclusive: 14.1 µM [activator, single point] | –

Copied from the results shown for reference:
SMILES | Potency | activation
Cc1ccc2nc(C(=O)N3CCCC(Nc4ccc(F)cc4)C3)cn2c1 (stereo unspecified) | inconclusive: 12.6 µM [activator, single point] | –
[O-]/C(=C(\C(=S)Nc1ccc(Cl)cc1)[n+]1ccccc1)c1ccc(OC(F)F)cc1 | inconclusive: 10 µM [activator, single point] | –
COc1ccc(OC)c(/C=C/c2[nH]c(=O)[nH]c(=O)c2[N+](=O)[O-])c1 | inactive | –
COC(=O)c1sccc1NC(=O)Cn1nnc(-c2ccccc2C)n1 | inconclusive: 14.1 µM [activator, single point] | –
